Among the data in PubChem BioAssay AID2685 (National Center for Advancing Translational Sciences (NCATS), 2010) are cell number change and AC50 values, retold here.

This assay in a line: qHTS Assay for Lipid Storage Modulators in Drosophila S3 Cells.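 For cell number change: cells counted by Cell Tracker Red CMTPX staining in the red channel.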 The note with it: BODIPY lipid droplet fluorescence, 18-24 h; for cell number change: measured here: cell count max response, cells fed with added oleic acid. The method in brief:
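Drosophila S3 cells got compounds at several concentrations plus oleic acid (400 uM solution). Laser-scanning cytometry with 488 nm excitation read lipid droplets at 500-530 nm and cells at 575-640 nm. Percent activity was relative to 20 uM Triacsin C.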
(In general: qHTS replaces the single test concentration by a dilution series.)

[1] abbreviates: measured here: lipid fluorescence (Fed channel) AC50, cells fed with added oleic acid.
[2] abbreviates: measured here: cell number channel AC50, cells fed with added oleic acid.

This is one part of the list. Further columns of the screen follow, without active or inactive calls. Compounds called inactive in the main read-out are mostly missing here. Potencies come from curve fits of mixed quality, noted in brackets.

Consider `COc1ccc(NC(=O)CN(C)C(=O)c2ccc(OCc3ccccc3)c(OC)c2)cc1`, for which the cell number change was -17.4%. For the same compound, the concentration at half-maximal activity (AC50) – broadly, the midpoint of the concentration-response curve, whichever way the signal moves – under setting [1] was 6.51 µM [rising, single point]. As for `CCN(CC)S(=O)(=O)c1ccc(Cc2ncc(C(F)(F)F)cc2Cl)s1`, the AC50 under setting [2] was 1.84 µM [rising, partial curve]. For the compound `S=c1[nH]nc(-c2cc(-c3ccccc3)n[nH]2)n1/N=C/c1ccc(Br)s1`, the cell number change was -39.3%. As to `O=[n+]1c2c(n([O-])c3cc(F)c(N4CCCC4)cc31)CCCC2`, the cell number change was -92.2%. In addition, the half-maximal activity concentration (AC50) under setting [2] was 29.1 µM [falling, partial curve]. Under setting [1], the AC50 was 18.4 µM [falling, partial curve].

For `CCOC(=O)NC(=O)c1cn(-c2ccc(OC)cc2)c(=O)[nH]c1=O`, the cell number change was -22.7%. Moreover, the AC50 under setting [1] was 29.1 µM [falling, single point].

As to `COc1cccc(C2CC(=O)N3CN(c4ccccc4F)CSC3=C2C#N)c1` (configuration not stated), the cell number change was -12.5%. Under setting [1], the concentration at half-maximal activity (AC50) is 0.92 µM [falling, full curve].

Turning to `COc1cc(CCC(=O)NNC(=O)c2cccc(Cl)c2)cc(OC)c1OC`, the cell number change was -7.14%. For the same compound, under setting [1], the AC50 was 6.51 µM [falling, partial curve, poor fit]. Consider `O=C(NC(=S)N(CCCCO)C1CCCCC1)c1sc2ccccc2c1Cl`, for which the cell number change is -11%. Further, the AC50 under setting [1] is 0.13 µM [rising, partial curve, poor fit]. In the case of `CN1C2CCC1CC(NC(=O)c1ccc([N+](=O)[O-])cc1)C2` (configuration not stated), the cell number change was -28.9%. On to `CC(NC(=O)c1ccc(CS(=O)(=O)c2cccc(C(F)(F)F)c2)o1)c1ccc2c(c1)OCCO2` (configuration not stated), for which the AC50 under setting [2] was 2.91 µM [rising, single point]. Consider `c1ccc(COc2ccc(CNCc3cccnc3)cc2)cc1`, for which the cell number change was -5.23%. `COC(=O)CSc1nnc([C@H](CC(C)C)NC(=O)OC(C)(C)C)o1`: the cell number change was -9.27%. Besides, the AC50 under setting [1] is 20.6 µM [falling, single point]. As for `Cc1ccc2nc3c(cc(C(=O)NC4CCS(=O)(=O)C4)n3Cc3ccccc3)c(=O)n2c1` (configuration not stated), the cell number change was 12.2%. The AC50 under setting [1] is 16.4 µM [rising, single point]. Regarding `COc1ccccc1/C=C/C=N/NC(=O)c1ccccn1`, the cell number change is -30.8%. Under setting [2], the AC50 was 23.1 µM [falling, single point]. Consider `O=C(CN1C(=O)/C(=C\C=C\c2ccccc2)SC1=S)Nc1ccc(F)cc1`, for which the cell number change is -44.1%.

Turning to `Cc1csc2c(NC3CCN(Cc4ccccc4)CC3)ncnc12`, the cell number change was -1.22%. For the same compound, under setting [2], the AC50 was 0.82 µM [falling, full curve]. Moreover, the half-maximal activity concentration (AC50) under setting [1] is 0.0231 µM [falling, full curve, poor fit]. Regarding `O=C(COc1cccc2c1CCN(Cc1ccc(Br)cc1)C2=O)N1CCOCC1`, the cell number change was 26.3%. As for `O=C1[C@H]2[C@@H](c3ccc(F)cc3)N3C(=O)N(c4cccc(Br)c4)C(=O)[C@@]3(Cc3ccccc3)[C@H]2C(=O)N1C1CCCCC1`, the cell number change is -24.5%. In addition, the AC50 under setting [1] is 29.1 µM [falling, partial curve]. Consider `CC(=O)Nc1nnc(SCC(=O)c2ccc3c(c2)Cc2ccccc2-3)s1`, for which the cell number change stood at 13.8%. Under setting [1], the AC50 was 6.51 µM [rising, partial curve]. In the case of `C/C(=N\NC(=O)c1c(Cl)cnn1C)c1ccc(NC(=O)c2ccncc2)cc1`, the cell number change turned out to be 19.2%. Further, the AC50 under setting [1] was 13 µM [rising, partial curve, poor fit]. As to `CC(=O)N1CSCC1C(=O)O` (configuration not stated), the cell number change was -19.8%. In addition, under setting [1], the AC50 is 0.116 µM [falling, full curve]. Turning to `Cc1c(OCC(=O)N2CCC(C(N)=O)CC2)ccc2c3c(c(=O)oc12)CCC3`, the cell number change is 24.6%.

As for `CCN(CC)S(=O)(=O)c1cccc2cccnc12`, the AC50 under setting [1] was 8.2 µM [falling, partial curve]. Regarding `CCC(=O)N(CC(=O)Nc1sc(C)c(C)c1C(N)=O)C1CCCC1`, the cell number change was found to be 0.588%. Besides, under setting [1], the AC50 was 0.651 µM [rising, full curve, poor fit].

`Cc1ccc(Nc2ncnc3sc(C)c(C)c23)cc1C`: the cell number change came out at 6.58%. Also, the AC50 under setting [2] is 1.3 µM [rising, full curve].

Turning to `Cc1ccc(C(C)C)c(OCCNCCc2ccccc2)c1`, the cell number change was -47.2%. Also, under setting [2], the AC50 is 13 µM [falling, partial curve, poor fit]. Further, the concentration at half-maximal activity (AC50) under setting [1] was 18.4 µM [falling, single point]. As to `CCCCn1c(N)c(N(CCOC)C(=O)COC(=O)C(C)Oc2ccc(Cl)cc2)c(=O)[nH]c1=O` (configuration not stated), the cell number change is 1.25%. Also, the concentration at half-maximal activity (AC50) under setting [2] is 0.517 µM [falling, full curve, poor fit]. Under setting [1], the AC50 is 10.3 µM [falling, partial curve, poor fit]. Consider `O=C1c2ccccc2N2C(=O)c3ccccc3C2N1Cc1ccco1` (configuration not stated), for which the cell number change worked out at 0.96%. Regarding `CC[C@@H](C)[C@H](NC(=O)CCc1c(C)c2cc3c4c(oc3c(C)c2oc1=O)CCCC4)C(=O)O`, the cell number change worked out at 26.2%. Further, the AC50 under setting [2] was 2.91 µM [rising, full curve, poor fit]. For the same compound, the AC50 under setting [1] is 3.26 µM [rising, single point]. `O=C(CN1C(=O)C2C3C=CC(C3)C2C1=O)NCCN1CCCc2ccccc21` (configuration not stated): the cell number change was -4.71%. The AC50 under setting [1] is 0.231 µM [rising, full curve].

Regarding `COc1ccc(NC(=O)CN(C)Cc2cccs2)cc1Cl`, the cell number change was -6.67%. Consider `NC(=O)C1CCN(C(=O)c2cc3n(n2)C(C(F)(F)F)CC(c2ccco2)N3)CC1` (configuration not stated), for which the cell number change amounted to 33.9%. The concentration at half-maximal activity (AC50) under setting [2] is 0.731 µM [rising, full curve, poor fit]. In addition, under setting [1], the AC50 was 2.91 µM [falling, single point]. Turning to `COc1ccc(S(=O)(=O)NCCCCCC(=O)O)cc1C(=O)O`, the cell number change was determined as 0.82%. The AC50 under setting [2] is 0.146 µM [falling, full curve, poor fit].

Regarding `Cc1cc(N/N=C/c2ccccc2)nc(N2CCOCC2)n1`, the cell number change was -5.23%. Besides, the AC50 under setting [1] is 6.51 µM [rising, single point]. In the case of `C/C(=N/NC(=O)CN1CCN(Cc2ccccc2Cl)CC1)c1cccs1`, the cell number change was 14.4%. Further, under setting [1], the AC50 is 5.17 µM [rising, single point]. Turning to `COc1cc(C(=O)Nc2ccc3oc(-c4cccnc4)nc3c2)cc(OC)c1OC`, the cell number change is 48.6%. Also, the AC50 under setting [2] was 0.461 µM [rising, full curve, poor fit]. In the case of `COc1cc2c(cc1NC(=O)COCC(=O)O)oc1ccccc12`, the cell number change was found to be 59.2%. For the same compound, the AC50 under setting [2] was 9.2 µM [rising, partial curve, poor fit]. Also, under setting [1], the concentration at half-maximal activity (AC50) was 29.1 µM [rising, single point]. On to `Cc1ccc(NC(=O)c2ccc(S(=O)(=O)N3CCOCC3)cc2)c(C)c1`, for which the cell number change is -22.4%.

Turning to `CCNS(=O)(=O)c1ccc(NC(=O)Nc2ccc3c(c2)OCO3)cc1`, the cell number change was -3.47%.
